Experimental data taken from the supplement of paper PMC10849652.
The list shows a part of the results.

The chains behind the UniProt entries cited, without tags or fusion partners. Where a name states a change or a piece, a line headed by the entry shows the natural chain unless it says otherwise.
UniProt Q70Z53: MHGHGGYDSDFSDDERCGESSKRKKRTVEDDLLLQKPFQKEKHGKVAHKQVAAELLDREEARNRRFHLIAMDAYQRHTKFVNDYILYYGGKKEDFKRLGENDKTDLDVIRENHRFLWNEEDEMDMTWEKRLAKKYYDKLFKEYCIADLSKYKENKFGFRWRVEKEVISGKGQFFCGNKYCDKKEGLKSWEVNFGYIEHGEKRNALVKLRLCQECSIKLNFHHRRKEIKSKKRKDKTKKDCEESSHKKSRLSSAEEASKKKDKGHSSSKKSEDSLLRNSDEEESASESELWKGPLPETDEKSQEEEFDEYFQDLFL
UniProt Q6ZNA5: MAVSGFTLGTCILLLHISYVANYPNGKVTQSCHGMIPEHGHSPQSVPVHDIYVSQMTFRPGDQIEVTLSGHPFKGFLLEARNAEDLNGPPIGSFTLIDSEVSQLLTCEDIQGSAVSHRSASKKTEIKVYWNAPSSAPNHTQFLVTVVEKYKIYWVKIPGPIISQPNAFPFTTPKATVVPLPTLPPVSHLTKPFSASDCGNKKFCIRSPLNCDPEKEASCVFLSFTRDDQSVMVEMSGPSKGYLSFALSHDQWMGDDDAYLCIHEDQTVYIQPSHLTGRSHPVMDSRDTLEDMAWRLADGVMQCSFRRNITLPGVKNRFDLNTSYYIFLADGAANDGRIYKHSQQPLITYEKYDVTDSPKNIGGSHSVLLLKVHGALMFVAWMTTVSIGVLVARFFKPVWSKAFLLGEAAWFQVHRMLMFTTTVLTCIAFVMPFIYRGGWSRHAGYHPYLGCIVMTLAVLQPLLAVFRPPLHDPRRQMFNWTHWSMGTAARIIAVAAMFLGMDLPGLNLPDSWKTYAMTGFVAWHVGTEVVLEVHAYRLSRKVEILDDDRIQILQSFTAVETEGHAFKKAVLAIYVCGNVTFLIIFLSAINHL
UniProt P07902: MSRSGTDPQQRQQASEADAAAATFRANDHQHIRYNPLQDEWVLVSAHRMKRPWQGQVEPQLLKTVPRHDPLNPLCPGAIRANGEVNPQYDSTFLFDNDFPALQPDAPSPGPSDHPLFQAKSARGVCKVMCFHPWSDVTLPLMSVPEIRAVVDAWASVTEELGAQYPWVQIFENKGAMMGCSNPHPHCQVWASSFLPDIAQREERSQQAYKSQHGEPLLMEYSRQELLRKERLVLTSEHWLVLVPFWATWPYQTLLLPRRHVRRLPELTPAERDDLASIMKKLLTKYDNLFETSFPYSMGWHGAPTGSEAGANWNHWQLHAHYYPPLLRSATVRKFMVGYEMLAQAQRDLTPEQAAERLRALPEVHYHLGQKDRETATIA
UniProt Q8NB37: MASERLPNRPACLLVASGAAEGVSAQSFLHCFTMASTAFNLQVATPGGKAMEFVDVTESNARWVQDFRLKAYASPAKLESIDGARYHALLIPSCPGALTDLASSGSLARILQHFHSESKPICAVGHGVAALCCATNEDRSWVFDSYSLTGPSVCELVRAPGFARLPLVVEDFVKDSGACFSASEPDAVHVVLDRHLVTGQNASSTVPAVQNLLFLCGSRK
UniProt Q9BTY2: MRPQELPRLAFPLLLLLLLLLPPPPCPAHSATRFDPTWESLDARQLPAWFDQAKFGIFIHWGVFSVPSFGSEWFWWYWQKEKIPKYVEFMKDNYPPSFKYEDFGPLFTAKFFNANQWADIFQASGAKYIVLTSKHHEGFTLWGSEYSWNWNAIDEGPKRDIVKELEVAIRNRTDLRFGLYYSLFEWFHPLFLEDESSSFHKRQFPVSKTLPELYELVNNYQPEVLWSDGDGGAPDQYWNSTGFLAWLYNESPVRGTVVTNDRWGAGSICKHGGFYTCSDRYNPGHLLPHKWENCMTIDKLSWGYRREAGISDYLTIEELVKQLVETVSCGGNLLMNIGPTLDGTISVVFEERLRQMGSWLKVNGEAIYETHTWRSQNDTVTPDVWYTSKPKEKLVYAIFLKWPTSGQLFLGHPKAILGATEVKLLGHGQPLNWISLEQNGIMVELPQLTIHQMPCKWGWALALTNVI
UniProt P04406: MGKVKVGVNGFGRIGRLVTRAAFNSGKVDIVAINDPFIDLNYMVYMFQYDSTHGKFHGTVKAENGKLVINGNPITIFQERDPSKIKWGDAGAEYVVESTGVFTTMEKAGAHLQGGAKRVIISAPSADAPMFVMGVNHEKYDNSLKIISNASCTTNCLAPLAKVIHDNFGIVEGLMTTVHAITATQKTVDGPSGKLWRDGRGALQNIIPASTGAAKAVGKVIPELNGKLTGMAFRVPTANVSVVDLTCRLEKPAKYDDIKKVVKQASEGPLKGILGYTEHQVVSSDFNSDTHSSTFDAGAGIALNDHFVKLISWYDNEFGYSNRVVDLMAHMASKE
UniProt P02774: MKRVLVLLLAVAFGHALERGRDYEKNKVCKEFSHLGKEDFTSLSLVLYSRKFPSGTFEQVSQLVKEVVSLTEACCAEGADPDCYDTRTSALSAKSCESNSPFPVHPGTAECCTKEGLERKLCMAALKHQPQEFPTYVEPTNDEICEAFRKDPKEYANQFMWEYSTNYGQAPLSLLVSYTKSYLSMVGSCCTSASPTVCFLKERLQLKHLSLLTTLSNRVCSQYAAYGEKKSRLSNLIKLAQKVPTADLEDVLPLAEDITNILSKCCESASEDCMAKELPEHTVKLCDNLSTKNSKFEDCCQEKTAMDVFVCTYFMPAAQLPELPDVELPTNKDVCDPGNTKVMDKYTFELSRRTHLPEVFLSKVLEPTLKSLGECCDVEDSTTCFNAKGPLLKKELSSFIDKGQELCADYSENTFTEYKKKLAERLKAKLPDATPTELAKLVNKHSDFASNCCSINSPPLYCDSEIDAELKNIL
UniProt P51116, whole entry, looked up: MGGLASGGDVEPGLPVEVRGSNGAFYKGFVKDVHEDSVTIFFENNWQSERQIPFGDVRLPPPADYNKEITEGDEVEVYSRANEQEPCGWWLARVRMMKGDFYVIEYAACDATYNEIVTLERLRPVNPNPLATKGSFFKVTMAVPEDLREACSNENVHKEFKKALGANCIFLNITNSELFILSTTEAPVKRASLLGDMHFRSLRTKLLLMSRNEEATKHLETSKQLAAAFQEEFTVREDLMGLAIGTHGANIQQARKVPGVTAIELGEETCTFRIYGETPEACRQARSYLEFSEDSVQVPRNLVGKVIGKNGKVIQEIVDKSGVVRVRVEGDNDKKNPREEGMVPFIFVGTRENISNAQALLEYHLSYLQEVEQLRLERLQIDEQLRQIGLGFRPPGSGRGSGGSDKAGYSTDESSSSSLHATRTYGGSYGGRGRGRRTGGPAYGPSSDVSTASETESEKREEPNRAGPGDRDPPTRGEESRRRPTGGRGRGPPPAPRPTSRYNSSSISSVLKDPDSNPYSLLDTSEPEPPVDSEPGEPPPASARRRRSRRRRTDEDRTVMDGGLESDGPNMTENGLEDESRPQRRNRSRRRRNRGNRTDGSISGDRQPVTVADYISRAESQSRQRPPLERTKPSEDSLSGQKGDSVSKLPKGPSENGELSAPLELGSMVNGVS
UniProt Q10472: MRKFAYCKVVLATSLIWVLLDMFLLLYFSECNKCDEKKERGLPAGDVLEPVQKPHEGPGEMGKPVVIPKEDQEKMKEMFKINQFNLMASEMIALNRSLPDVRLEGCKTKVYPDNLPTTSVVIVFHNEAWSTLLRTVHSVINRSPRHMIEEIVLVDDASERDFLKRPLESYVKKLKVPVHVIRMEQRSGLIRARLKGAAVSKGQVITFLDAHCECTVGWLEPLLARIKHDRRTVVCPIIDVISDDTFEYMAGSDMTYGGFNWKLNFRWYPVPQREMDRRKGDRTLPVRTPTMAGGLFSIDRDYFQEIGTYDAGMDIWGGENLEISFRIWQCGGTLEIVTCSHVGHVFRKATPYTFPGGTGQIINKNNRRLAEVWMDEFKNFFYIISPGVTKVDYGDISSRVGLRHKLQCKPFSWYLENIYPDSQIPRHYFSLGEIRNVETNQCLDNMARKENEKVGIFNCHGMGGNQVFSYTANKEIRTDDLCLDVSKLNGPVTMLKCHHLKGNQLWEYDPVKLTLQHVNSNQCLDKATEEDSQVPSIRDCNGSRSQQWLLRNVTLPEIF
UniProt P57678: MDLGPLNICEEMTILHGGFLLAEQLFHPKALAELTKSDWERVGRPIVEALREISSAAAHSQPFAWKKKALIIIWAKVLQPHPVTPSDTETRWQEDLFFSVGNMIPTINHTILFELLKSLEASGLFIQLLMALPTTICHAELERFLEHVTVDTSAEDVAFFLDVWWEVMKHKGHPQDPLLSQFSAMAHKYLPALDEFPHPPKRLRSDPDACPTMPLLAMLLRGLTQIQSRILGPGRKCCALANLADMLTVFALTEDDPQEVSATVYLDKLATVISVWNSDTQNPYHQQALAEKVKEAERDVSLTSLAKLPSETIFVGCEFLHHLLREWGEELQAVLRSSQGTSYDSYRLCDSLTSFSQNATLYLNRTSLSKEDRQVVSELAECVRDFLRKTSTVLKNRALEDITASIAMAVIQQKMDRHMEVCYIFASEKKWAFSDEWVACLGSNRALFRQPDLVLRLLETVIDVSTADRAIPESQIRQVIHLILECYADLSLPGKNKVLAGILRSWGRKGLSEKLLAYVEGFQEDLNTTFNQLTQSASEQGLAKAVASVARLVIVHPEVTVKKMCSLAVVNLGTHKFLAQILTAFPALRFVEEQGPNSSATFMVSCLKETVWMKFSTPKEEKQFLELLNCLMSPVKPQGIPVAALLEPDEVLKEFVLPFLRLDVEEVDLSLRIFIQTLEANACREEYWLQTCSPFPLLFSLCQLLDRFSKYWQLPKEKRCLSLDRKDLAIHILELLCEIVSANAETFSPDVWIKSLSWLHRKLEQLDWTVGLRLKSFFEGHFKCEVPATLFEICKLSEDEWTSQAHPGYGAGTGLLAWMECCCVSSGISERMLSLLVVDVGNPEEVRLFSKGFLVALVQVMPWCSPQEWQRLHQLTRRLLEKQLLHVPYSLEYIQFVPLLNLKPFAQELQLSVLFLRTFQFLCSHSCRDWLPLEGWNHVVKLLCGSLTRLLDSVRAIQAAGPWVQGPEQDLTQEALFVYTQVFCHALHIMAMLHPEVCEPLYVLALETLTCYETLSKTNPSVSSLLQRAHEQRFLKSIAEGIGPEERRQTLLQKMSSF
UniProt P23769: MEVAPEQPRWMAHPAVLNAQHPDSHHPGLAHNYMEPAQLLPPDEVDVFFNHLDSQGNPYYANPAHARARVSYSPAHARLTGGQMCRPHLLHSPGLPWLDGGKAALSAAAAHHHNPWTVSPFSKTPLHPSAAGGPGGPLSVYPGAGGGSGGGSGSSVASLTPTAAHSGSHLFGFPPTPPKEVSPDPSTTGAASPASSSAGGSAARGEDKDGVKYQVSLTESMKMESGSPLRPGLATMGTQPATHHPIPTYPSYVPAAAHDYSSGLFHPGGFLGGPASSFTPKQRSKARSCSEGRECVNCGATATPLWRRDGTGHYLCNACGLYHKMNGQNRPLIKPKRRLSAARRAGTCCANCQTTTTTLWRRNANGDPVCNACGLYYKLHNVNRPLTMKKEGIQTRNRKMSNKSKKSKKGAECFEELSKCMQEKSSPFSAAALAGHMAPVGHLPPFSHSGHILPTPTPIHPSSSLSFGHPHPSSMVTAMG
UniProt Q05932: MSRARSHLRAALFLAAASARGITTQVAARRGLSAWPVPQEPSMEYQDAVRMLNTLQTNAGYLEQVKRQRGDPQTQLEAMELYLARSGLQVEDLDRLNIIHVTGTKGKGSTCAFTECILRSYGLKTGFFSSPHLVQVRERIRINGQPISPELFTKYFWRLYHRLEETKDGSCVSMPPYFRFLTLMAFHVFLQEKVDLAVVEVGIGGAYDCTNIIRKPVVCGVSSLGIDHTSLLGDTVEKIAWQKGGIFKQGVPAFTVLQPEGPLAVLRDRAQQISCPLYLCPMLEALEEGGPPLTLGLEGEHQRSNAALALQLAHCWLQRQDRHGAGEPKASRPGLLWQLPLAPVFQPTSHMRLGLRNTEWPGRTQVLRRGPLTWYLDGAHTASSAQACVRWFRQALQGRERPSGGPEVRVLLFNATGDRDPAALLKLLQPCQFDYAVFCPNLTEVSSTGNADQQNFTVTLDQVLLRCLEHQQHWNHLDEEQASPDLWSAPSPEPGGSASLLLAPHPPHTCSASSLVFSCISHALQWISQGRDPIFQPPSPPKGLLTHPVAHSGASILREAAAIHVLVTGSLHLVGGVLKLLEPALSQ

Columns and labels:
Assay in all cases: log2 fold change, soluble protein after heating vs DMSO (PISA); higher = thermal stabilisation; K562 cells, 10 uM, 30 min; active = over 0.2 and 3.5 SD of the protein, either way, in both replicates (recomputed)
[1] = compound: NC(=O)Nc1cc(-c2cccc(F)c2)sc1C(=O)N[C@H]1CCCNC1
Summary of the method: (§1)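 Soluble protein was quantified by TMTpro 16plex LC-MS/MS after channel sums were equalised. It was obtained as the supernatant after 21,000xg for 90 min from pooled aliquots of K562 cells (2×10^6 cells/mL, 10 μM compound, 30 min) heated for 3 min across 48°C-58°C and extracted in PBS with 0.5% NP-40 at 4°C. Thermal stability values are relative to control samples and come from duplicates. They are given as log2 fold changes.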

[2] = compound: NC(=O)c1cnc(N[C@@H]2CCCC[C@@H]2N)nc1Nc1cccc(-n2nccn2)c1
Summary of the method: as §1

[3] = compound: NC1(c2ccc(-c3nc4ccn5c(=O)[nH]nc5c4cc3-c3ccccc3)cc2)CCC1
Summary of the method: as §1

[4] = compound: NCC(=O)Nc1ccc(-n2nc(C(F)(F)F)cc2-c2ccc3c(ccc4ccccc43)c2)cc1
Summary of the method: as §1

[5] = compound: Nc1ccccc1NC(=O)c1ccc(CNC(=O)OCc2cccnc2)cc1 [entinostat]
Summary of the method: as §1

[6] = compound: O=C(CCCCCCC(=O)Nc1ccccc1)NO [vorinostat]
Summary of the method: as §1

[7] = compound: O=C(CCCCCCNC(=O)c1cnc(N(c2ccccc2)c2ccccc2Cl)nc1)NO [citarinostat]
Summary of the method: as §1

[8] = compound: O=C(O)c1ccc2c(c1)nc(Nc1cccc(Cl)c1)c1ccncc12 [silmitasertib]
Summary of the method: as §1

[9] = compound: O=C1NC(=O)C(c2cnc3ccccn23)=C1c1cn2c3c(cc(F)cc13)CN(C(=O)N1CCCCC1)CC2
Summary of the method: as §1

[10] = compound: c1cc(OCCN2CCCCC2)cc(-c2n[nH]c3ccc(-c4nnc[nH]4)cc23)c1
Summary of the method: as §1

Measured: log2 fold change

GAN (UniProt Q9H2C0)
inactive: [1] -0.025 | [2] -0.1 | [3] -0.06 | [4] -0.025 | [5] -0.01 | [6] 0.051 | [7] -0.012 | [8] -0.011 | [9] 0.014 | [10] 0.031

FRA10AC1 isoform 3 (UniProt Q70Z53)
inactive: [1] -0.069 | [2] 0.114 | [3] -0.121 | [4] -0.077 | [5] 0.019 | [6] 0.065 | [7] 0.08 | [8] 0.129 | [9] -0.091 | [10] -0.232

FRRS1 (UniProt Q6ZNA5)
inactive: [1] -0.008 | [2] -0.03 | [3] 0.004 | [4] 0.015 | [5] 0.008 | [6] 0.028 | [7] 0.047 | [8] -0.017 | [9] 0.057 | [10] -0.12

GALT (UniProt P07902)
inactive: [1] -0.011 | [2] 0.159 | [3] -0.127 | [4] 0.095 | [5] 0.032 | [6] 0.067 | [7] -0.144 | [8] -0.083 | [9] -0.193 | [10] 0.564

G6PD isoform 2 (UniProt P11413)
inactive: [1] -0.021 | [2] -0.006 | [3] -0.084 | [4] 0.01 | [5] -0.003 | [6] 0.027 | [7] -0.011 | [8] -0.055 | [9] -0.036 | [10] -0.028

FNTB (UniProt P49356)
inactive: [1] -0.024 | [2] 0.09 | [3] 0.162 | [4] -0.035 | [5] -0.079 | [6] -0.038 | [7] 0.054 | [8] -0.019 | [9] 0.048 | [10] 0.002

GATD1 (UniProt Q8NB37)
active: [9] -0.673
inactive: [1] 0.012 | [2] 0.028 | [3] -0.037 | [4] -0.013 | [5] -0.084 | [6] -0.018 | [7] -0.031 | [8] -0.025 | [10] -0.031

GDPD1 (UniProt Q8N9F7)
inactive: [1] -0.024 | [2] 0.144 | [3] 0.067 | [4] 0.003 | [5] -0.011 | [6] -0.141 | [7] 0.051 | [8] -0.039 | [9] 0.096 | [10] -0.038

FUCA2 (UniProt Q9BTY2)
inactive: [1] 0.004 | [2] -0.037 | [4] 0.013 | [5] -0.03 | [6] -0.033 | [7] 0.042 | [8] 0.032 | [9] 0.032
active: [3] -0.499 | [10] -0.551

GALNT12 (UniProt Q8IXK2)
inactive: [1] 0.026 | [2] -0.127 | [3] -0.133 | [4] 0.044 | [5] 0.021 | [6] -0.023 | [7] -0.111 | [8] -0.007 | [9] -0.101 | [10] -0.134

FUT11 (UniProt Q495W5)
inactive: [1] -0.006 | [2] -0.017 | [3] -0.046 | [4] 0.079 | [5] 0.119 | [6] -0.077 | [8] -0.054 | [9] 0.061

FZD5 (UniProt Q13467)
inactive: [1] -0.009 | [3] -0.366 | [5] -0.149 | [8] 0.234 | [9] -0.328

FUNDC1 (UniProt Q8IVP5)
inactive: [1] -0.058 | [3] -0.104 | [5] 0.01 | [8] 0.055

GAPDH (UniProt P04406)
inactive: [1] 0.047 | [2] 0.096 | [3] 0.076 | [4] 0.106 | [5] -0.009 | [6] -0.002 | [7] 0.016 | [8] -0.062 | [9] 0.001 | [10] 0.001

GC isoform 3 (UniProt P02774)
inactive: [1] 0.214 | [2] 0.222 | [4] 0.17 | [5] -0.03 | [6] -0.135 | [7] 0.037 | [9] 0.025 | [10] 0.425

FXR2 (UniProt P51116)
inactive: [1] -0.115 | [2] 0.034 | [3] 0.298 | [4] 0.077 | [5] -0.041 | [6] 0.013 | [7] -0.02 | [8] 0.233 | [9] 0.287 | [10] -0.048

GGA2 (UniProt Q9UJY4)
inactive: [1] 0.02 | [2] -0.02 | [3] -0.208 | [4] 0.01 | [5] 0.032 | [7] 0.042 | [8] 0.033 | [9] 0.152 | [10] -0.034

GART (UniProt C9JZG2)
inactive: [1] -0.031 | [2] -0.428 | [3] -0.217 | [4] -0.293 | [5] 0.021 | [6] -0.007 | [7] 0.07 | [8] 0.09 | [9] -0.034 | [10] 0.017

FXYD5 (UniProt Q96DB9)
inactive: [1] -0.251 | [2] -0.159 | [4] -0.16 | [5] 0.141 | [6] -0.13

GATAD2B (UniProt Q8WXI9)
inactive: [1] 0.049 | [3] -0.093 | [4] -0.079 | [5] 0.037 | [7] -0.027 | [8] -0.063 | [9] 0.069 | [10] -0.197

GALNT10 (UniProt Q86SR1)
inactive: [1] 0.057 | [2] -0.058 | [3] -0.111 | [5] -0.021 | [6] -0.106 | [8] -0.034 | [9] 0.012

GGT1 (UniProt P19440)
inactive: [1] 0.05 | [2] 0.157 | [3] -0.029 | [5] -0.017 | [6] 0.042 | [8] -0.035 | [9] -0.023

GALNT1 (UniProt Q10472)
inactive: [1] -0.016 | [2] -0.012 | [3] -0.068 | [4] -0.016 | [5] -0.027 | [6] 0.067 | [7] 0.011 | [8] -0.007 | [9] -0.121 | [10] 0.046

FOXRED1 (UniProt Q96CU9)
inactive: [1] 0.034 | [2] 0 | [3] -0.055 | [4] 0.031 | [5] -0.008 | [6] 0.001 | [7] 0.022 | [8] -0.038 | [9] 0.001 | [10] 0.138

FTSJ1 isoform 2 (UniProt Q9UET6)
inactive: [1] -0.167 | [5] 0.192

GEMIN4 (UniProt P57678)
inactive: [1] 0.183 | [2] 0.229 | [3] 0.249 | [4] 0.139 | [5] 0.086 | [6] 0.087 | [7] -0.124 | [8] 0.181 | [9] 0.256 | [10] -0.398

GDE1 (UniProt Q9NZC3)
inactive: [1] -0.001 | [2] 0.058 | [3] 0.094 | [4] -0.01 | [5] -0.065 | [7] 0.024 | [8] -0.086 | [9] -0.008 | [10] 0.032

GATA2 (UniProt P23769)
inactive: [1] 0.047 | [2] 0.047 | [3] 0.016 | [4] 0.239 | [5] -0.129 | [6] 0.055 | [7] -0.203 | [8] 0.073 | [10] -0.081

2 entries picked at random from the list so far:
GDE1 (UniProt Q9NZC3)
inactive: [1] -0.001 | [2] 0.058 | [3] 0.094 | [4] -0.01 | [5] -0.065 | [7] 0.024 | [8] -0.086 | [9] -0.008 | [10] 0.032

FTSJ1 isoform 2 (UniProt Q9UET6)
inactive: [1] -0.167 | [5] 0.192

Continuation:

GAMT (UniProt Q14353)
inactive: [1] 0 | [2] -0.008 | [3] -0.13 | [4] 0.034 | [5] -0.152 | [6] 0.025 | [7] 0.102 | [8] -0.015 | [9] -0.062 | [10] -0.094

FTSJ3 (UniProt Q8IY81)
inactive: [1] 0.158 | [2] -0.026 | [5] -0.031 | [6] -0.184

GATB (UniProt O75879)
inactive: [1] -0.297 | [2] 0.008 | [3] -0.258 | [4] -0.182 | [5] 0.089 | [6] -0.134 | [8] -0.018 | [9] -0.221

FOPNL (UniProt Q96NB1)
inactive: [1] -0.044 | [2] -0.042 | [3] -0.01 | [4] -0.042 | [5] -0.099 | [6] 0.184 | [8] 0.005 | [9] -0.06

FPGS (UniProt Q05932)
inactive: [1] 0.077 | [3] -0.127 | [4] -0.093 | [5] 0.042 | [6] -0.001 | [8] -0.139 | [9] 0.347
